Several values for one entry are separate records, joined by “and”; a condition that tells them apart may be missing. Identical values can stand only once. At least one read-out could not be matched to a standard name with certainty.
Test system: A549 human lung adenocarcinoma cells
Assay: MTT cytotoxicity assay
Format: cell-based
Conditions: SI= IC50 for NIH/3T3 cell line / IC50 for A549 cell line
Description: In order to be used from this stock, the concentrations ranging from 0.12 to 500 µg/mL (with the highest DMSO ratio of 0.1%) were prepared.
A549 human lung adenocarcinoma cells (ATCC® CCL-185™) were grown in RPMI 1640 medium supplemented with 10% fetal bovine serum, 1% penicillin/streptomycin, in an incubator with carbon dioxide, in a culture medium at 37°C at 95% relative humidity.
MTT protocol was applied to determine cell viability. […] At the end of the incubation period, 20 µL of MTT dye (5 mg/mL) was added into each well, and the cells were incubated for an additional 4 hours at 37°C. After this process, MTT dye was removed from the cells, 200 µL of DMSO was added to each well and left to incubate for 10 minutes. Color change was detected at 540 nm in the ELx808-IU Bio-Tek plate reader. Inhibition% values were determined for each concentration of compounds. Inhibitory concentration 50 (IC50) values of the compounds were calculated by drawing a dose-response curve with their concentrations against these values. All experiments were carried out in triplicate. The results were given as mean±standard deviation. Inhibition% = 100−[(ODtest compound−ODblank/ODsolvent control−ODblank)×100] [formula]
Selective index (SI) values were determined using the following formula. SI […] IC50 for NIH/3T3 cell line/IC50 for A549 cell line [formula]

COc1ccc2nc(NC(=O)CSc3nnc(CCc4cccnc4)n3N)sc2c1 [Compound 3g, 2-((4-Amino-5-(2-(pyridine-3-yl)ethyl)-4H-1,2,4-triazole-3-yl)thio)-N-(6-methoxybenzothiazole-2-yl)acetamide]
SI values: 1041.66 and >1041.66

From patent publication EP3959200B1, “NEW TRIAZOLE AND TRIAZOLOTHIADIAZINE DERIVATIVES EXERTING CYTOTOXIC AND APOPTOTIC EFFECTS ON A549 CELLS THROUGH AKT INHIBITION” (Anadolu Universitesi, priority 2020, dated 2022)
